This passage reports binding signal (log2 relative supershift) results from publication PMC12370185.

The list shows a part of the results.

What all share (experiment): EMSA with sequencing
Conditions in all cases: 10 mM Tris-Cl pH 7.5, 50 mM NaCl, 1 mM DTT, 0.25 mg/ml BSA, 2 mM MgCl2, 0.025% Nonidet P-40, 5% glycerol; 28 nM nucleosome library; 10 min on ice then 30 min …; high values mean tight binding; double strand, one strand shown
On the technique in general: In EMSA bound probe runs differently from free probe, usually more slowly.

Experiment [1] deals with KLF4 + histone octamer.
Experiment [2] deals with OCT4 + histone octamer.
The test system of experiment [3] is SOX2 + histone octamer.
The subject of experiment [4] is c-MYC + MAX + histone octamer.

“GATGGACCCTATACGCGGCGTTCTAGTGTATTTTAAAAGGTTTCTGTATGCAAGAGCGTGTTCATTGTGCAGAGCAGAGTGTCTGTTTTAAAGCAGTGGCTCTCAGCTCTCATTGTTCTGCAGAATCACCTGGGCCCTACCCCAGAGCTTCTGATTCATTTGGTCTGAGATGAGGCTTAGCCGTGGTTTTAGTTTTAAGCTCCCTGGAGATGCCAGTCGGATAGTGTTCC”: the binding signal (log2 relative supershift) in experiment [1] was 1.51; in experiment [2], 0.394; in experiment [3] it was 0.899; in experiment [4], 0.457.
As to “GATGGACCCTATACGCGGCTCCCCAGTGCTCTCCAGAATGTGACGATGGATGGACTTGAATAAAAATGCTTAGTGAGAATCTGTTGCATTCATTTACCTCCCAATGAGCTCCTTTGGGGACATGTATGGGATAAAGGACAGAAGGCCCAGCAGAAGCATGAGGACAGTTAAAAGTTTTTGCACATCTTCAGGGGAAGGGAGAAGGAGGCTTGCCAGTCGGATAGTGTTCC”, the binding signal (log2 relative supershift) in experiment [1] was 1.1; in experiment [2], 0.0182; in experiment [3] it was 0.0817; in experiment [4], 0.0607.
As to “GATGGACCCTATACGCGGCCTGTCCTGCCAATGAGAATATGATAAAAAGGTTCTTGAATGCTGCTGTAGTCAGTATACTTGGGGTCATGGAAGGCTGCTGACCTCATACATGGGGACTCTTGCAGAGAAGAGATGGAGTGGCTTGACAGGACTTGCCCGGTTTCTAGAACTCACTGTCTCTCTGTCTCTCTCTCTCTCTTTTTTTTTTTTTGCCAGTCGGATAGTGTTCC”, the binding signal (log2 relative supershift) in experiment [1] worked out at 0.693; in experiment [2] it was 0.724; in experiment [3], 0.897; in experiment [4], 0.137.
On the same counts, the results for “GATGGACCCTATACGCGGCAGATAAGGAAACTTGCACAGAGGGCTTGCCTAAACATGCCCACAGCTGACTAAGGGCTCACATGTGCACTAGGGGAATGGGGTGGAGCCACAAGAAATTCACACCTTATACAAATAGGGAATCCAGCCCCATTAGCATATATATTCATGCTGCTGATAAAGACATACCCAAGACTGGGAAGCAAAATAGGTTGCCAGTCGGATAGTGTTCC” are 1.86, 0.751, 0.801 and 0.408.
On the same counts, the results for “GATGGACCCTATACGCGGCCTGGGAGGGGAGGAGGGGAAGGAAGGAGAGCTAGAGGCCAGGGCAGAAAGCCAACAGCTGGCTTGGACGGGGCATTGTGTGATTTGGAAGGTGCCATGTGTCCCAGGGGAGTGGCATTTTCACCTCCAACCTCCTCTCTGCTCATCTGGACCCCACCCCTCCCCTTTAGCTGGCTCCACACTCCCTCCCTGTGCCAGTCGGATAGTGTTCC” are 2.82, 0.316, 0.288 and 0.414.
The like results for “GATGGACCCTATACGCGGCCACATTCTGGGTTGTCTTATTACATAACAGTGATTTGTACATGAATGGCTACCACCAATGCTGATGGGAGCTACCAGGCTGCAATGTCCTGCCCACCCAGCACTGCATGTGCTGCCATATTCATAGCTGCCCTTAAGGTCCAAGGTAATGCTTTCTGGTAATAACTCAGTGCAAACAAAATGTTGATGTGCTGCCAGTCGGATAGTGTTCC” were, in that order, 0.419, 0.0981, 0.202 and 0.277.
Turning to “GATGGACCCTATACGCGGCAAAGCATGATTCTCGCGATCCTGTCTCCTGCTCTGTCAGCAGGGCACTGTACTTGCTGATACCAGGGAATGTTTGTTCTTAAATACCATCATTCCGGACGTGTTTGCCTTGGCCAGTTTTCCATGTACATGCAGAAAGAAGTTTGGACTGATCAATACAGTCCTCTGCCTTGGATCCAGCGACTTTACCGGTGCCAGTCGGATAGTGTTCC”, the binding signal (log2 relative supershift) turned out to be 0.385 in experiment [1], 0.181 in experiment [2], 0.483 in experiment [3] and 0.598 in experiment [4].
Consider “GATGGACCCTATACGCGGCCCTTTCTGCCCAAAGCAGTGTAAGGGGAGTGGTCAGGGGATGTAGAATTAGAGGCACATGGTATGATATCACTGGAACTACCCAGAGAGCACATCTCACTGACCACACCCAGCCATCCCCATTCACATTTTCTCATGCCTTACCACCTCCTCCTAGCTGTATACCTCTAGTTTGATAACTATTTTTCCTCCTGCCAGTCGGATAGTGTTCC”, for which the binding signal (log2 relative supershift) in experiment [1] is 2.49; in experiment [2] it was 0.285; in experiment [3], 0.337; in experiment [4], 0.384.
Turning to “GATGGACCCTATACGCGGCCCTCTTTTACTTCATATAAACTTTCAATTGAAGTGTACATACCAAAAAGCACACAAATCTAATATACAGTTCAATGGAATGACACACAGTGAACACACTTGCATAACCAGGGCCCCAGCTCGAGGAACTGAACATTAGCAGCATCCCAGAAGGCCCCCTGTGCTCCCTTCCAGTCACTAACAACTGCCCTATGCCAGTCGGATAGTGTTCC”, the binding signal (log2 relative supershift) in experiment [1] turned out to be 1.58; in experiment [2], 0.223; in experiment [3], 0.993; in experiment [4] it was 0.178.
The like results for “GATGGACCCTATACGCGGCAGGACACAGCCACATCTCCAACCCGACCCACAAGTCTTTACACCAGATGCTTTGTGCAGATATGGGAGCCAGCACAGGGGGCTTGTCTGGGCATGCCCCACAACCACTAGGAGAATGGGTGGAGCCACCAGGAATTCATGAATTATGAGGGGAAAGAGCCTGGCCTCTTCAACTCACGTGTGGTGGCCTGCTGCCAGTCGGATAGTGTTCC” were, in that order, 1.21, 0.0349, 0.175 and 0.656.
On the same counts, the results for “GATGGACCCTATACGCGGCGCTCTAGCTCCTGTGGCCTCGACCTCTTCACCCCAGCACCGCCTCCAACTAGTCCAGACAAGTCCCAAGTATTTTCAGCCACCTTTATCTGATCAGAAATGTTTGGAATTCCACAGCAGAAGGCAACAGCTCTGGAGGATTTGGGGAAGGGAGCAAATCCCTGCAACACCCTTCTCTCCCCACTGTACAGATGCCAGTCGGATAGTGTTCC” are 2.57, 0.359, 0.221 and 0.47.
